This assay is described as follows: qHTS Assay to Find Inhibitors of Chronic Active B-Cell Receptor Signaling. To be noted: ABC-DLBCL IkBa-CBG/CBR reporter, luminescence ratio (green luciferase fused to IkBa over red control in TMD8 lymphoma cells), 4 h. The procedure, abridged:
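TMD8 human ABC-DLBCL cells with doxycycline-inducible IκBα–green luciferase fusion and unfused red luciferase, in 0.5% FBS medium; compounds up to 46 uM, 4 h at 37C. Green/red luminescence ratio, filter-overlap corrected, fitted to concentration-response curves.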
For orientation: In qHTS, concentration-response curves come from the screen itself.

The mark [1] stands for this setting: measured here: CBR red luminescence, cell number.
Setting [2] is: measured here: IkBa-CBG green luminescence.

This is one part of the list. These are further read-outs of the screen, such as a control signal, another cell line or another target. No call is given for them. The list favours compounds with an active or inconclusive main result. Words in brackets tell the shape of the fitted curve; partial curves, single points and poor fits give uncertain potencies.

With `COC(=O)CSc1ccc2nnc(CCNS(=O)(=O)c3ccccc3)n2n1`, the AC50 (commonly the concentration giving half of the maximal activity seen) under setting [1] was 0.562 µM [rising, full curve, poor fit].

Take `COC(=O)CN(n1cnnc1)S(=O)(=O)c1ccc(C)cc1`: the AC50 by setting is: under setting [1], 25.9 µM [rising, single point]; under setting [2], 18.4 µM [falling, partial curve, poor fit].

Regarding `COc1ccc(CN2CCNC(=O)C2CC(=O)O)c(OC)c1` (stereo not drawn), the AC50 under setting [1] was 29.1 µM [rising, single point]. The same measure, in the same setting: the figure for `Cc1ccccc1-c1ccccc1CN1[C@@H](C(C)C)COCCS1(=O)=O` is 13 µM [falling, partial curve, poor fit]. On to `Cc1sc2nc(-c3ccccn3)[nH]c(=O)c2c1-c1ccccc1`, for which the half-maximal activity concentration (AC50) was 35.5 µM [falling, single point] under setting [1] and 12.6 µM [falling, partial curve, poor fit] under setting [2]. In the case of `O=C(N=Nc1c(O)n(Cc2ccccc2)c2ccccc12)c1ccc(O)cc1`, the AC50 under setting [1] is 16.4 µM [falling, single point]. On to `COc1cccc(Nc2nnc(SCC(=O)Nc3sccc3C(N)=O)s2)c1`, for which, under setting [1], the AC50 is 11.2 µM [falling, partial curve, poor fit]. Still for that read-out and setting: the figure for `COc1ccc(C(=O)NCC(=O)N=Nc2c(O)n(Cc3ccccc3)c3ccccc23)cc1OC` is 5.8 µM [falling, partial curve, poor fit]; for `CCCCn1c(-c2cccc3ccccc23)nc2cc3[nH]c(=O)c(C(C)C)nc3cc21` it is 6.31 µM [falling, partial curve, poor fit]. In the case of `O=C(O)c1ccc(S(=O)(=O)c2ccc([N+](=O)[O-])cc2[N+](=O)[O-])cc1`, the AC50 under setting [1] is 3.16 µM [rising, full curve, poor fit] and the AC50 under setting [2] was 17.8 µM [falling, single point].

`CC1CCCCN1CCNC(=O)c1ccc2c(c1)N(Cc1ccccc1)C(=O)c1ccccc1S2(=O)=O` (stereo not drawn): under setting [1], the AC50 was 11.2 µM [falling, single point]. Take `Cc1ccc(OCC(=O)N/N=C\c2cccs2)c([N+](=O)[O-])c1`: the AC50 under setting [1] is 13 µM [rising, partial curve, poor fit]. Consider `O=C(NCS(=O)(=O)c1ccccc1)c1ccccc1`, for which the AC50 under setting [1] was 12.6 µM [rising, partial curve, poor fit]. Same read-out and setting: the result for `Cc1cccc(-n2ncc3c(NCc4cccs4)ncnc32)c1` reads 35.5 µM [falling, single point]. The same measure, in the same setting: the figure for `COCCCN1C(=O)N(c2ccc(F)cc2)C(=O)C1CC(=O)Nc1ccc(OC)cc1` (stereo not drawn) is 3.98 µM [rising, full curve, poor fit]; for `O=C(NNC(=O)c1ccc(Cl)cc1Cl)c1cccs1` it is 12.6 µM [falling, single point]; for `O=C(N/N=C/c1ccc[nH]1)c1sc2ccccc2c1Cl` it is 10 µM [falling, partial curve].

With `Cc1ccc(C(=O)n2nc(-n3cccc3)c3c(C)cc(C)nc32)cc1`, the AC50 under setting [1] was 15.8 µM [falling, partial curve, poor fit]. In the case of `O=C(CNC(=O)c1ccc(F)cc1)c1ccc(Cl)cc1`, under setting [1], the AC50 was 7.08 µM [falling, partial curve, poor fit].

Take `Cc1cc(C(=O)N/N=C(\CCC(=O)O)c2cccs2)c2ccccc2n1`: the AC50 under setting [2] was 25.1 µM [falling, partial curve, poor fit]. Take `COc1cccc(COC(=O)Nc2ccccc2F)c1`: the AC50 under setting [1] was 10 µM [falling, partial curve]. Take `Cc1nn2cnnc2c(C)c1Cc1ccc(Cl)cc1`: the AC50 under setting [1] is 2.24 µM [falling, single point]. On to `Cc1cc(C)n(C(=O)c2ccc(C)c(S(=O)(=O)N3CCCC3)c2)n1`, for which the AC50 under setting [1] is 10.3 µM [rising, partial curve]. On the same count and under the same terms, the figure for `Cc1ccc(SCc2cc(=O)n3[nH]c(C)nc3n2)cc1` is 23.1 µM [falling, partial curve, poor fit]; for `Cc1ccccc1NC(=O)/C=C1\SC(=O)NC1=O` it is 35.5 µM [falling, single point]. With `Oc1ccc(N=Nc2n[nH]c(-c3ccccc3)n2)cc1`, the AC50 under setting [1] was 3.26 µM [falling, partial curve]. For the compound `Cc1c(C(=O)Nc2ccccn2)oc2ccccc12`, the AC50 under setting [1] was 15.8 µM [falling, single point].

On to `CCC(C)(C)C1CCC2(CC1)NC(=O)N(CC(=O)N(C)CC(=O)Nc1ccccc1C(F)(F)F)C2=O` (stereo not drawn), for which the AC50 under setting [1] is 5.01 µM [falling, partial curve].

With `Cc1ccc(-c2cc(=O)c3cc(C)ccc3[nH]2)cc1`, under setting [1], the AC50 is 16.4 µM [falling, single point].

In the case of `CC1CCN(C(=O)c2cc(-c3ccc4c(c3)OCO4)on2)CC1`, under setting [1], the AC50 is 12.6 µM [falling, single point]. For the compound `COc1cccc(Nc2ncnc3nc[nH]c23)c1`, under setting [1], the AC50 was 7.31 µM [falling, partial curve]. Still for that read-out and setting: the figure for `COc1ccc(CCNC(C(=O)Nc2cc(C)cc(C)c2)c2ccccc2)cc1` (stereo not drawn) is 11.2 µM [falling, partial curve]. Regarding `CCOc1cccc(C(=O)NC(=S)Nc2ccc3c(c2)OCCO3)c1`, the AC50 was 11.2 µM [falling, partial curve, poor fit] under setting [1] and 15.8 µM [falling, partial curve, poor fit] under setting [2].

With `Cc1cc(C)n2nc(C(=O)N/N=C/c3cn(C)nc3C)nc2n1`, the AC50 under setting [1] is 35.5 µM [rising, single point]. The same measure, in the same setting: the figure for `CCCCn1c2ccc(F)cc2c2nnc(SCCN3CCOCC3)nc21` is 35.5 µM [falling, single point]; for `CN(CCCNC(=O)c1cn(C)c2ccc(S(=O)(=O)N(C)C)cc2c1=O)c1ccccc1` it is 20.6 µM [rising, single point]; for `O=C(NC1CCCCC1)Oc1ccccc1` it is 35.5 µM [falling, partial curve, poor fit]. For the compound `CCN(Cc1ccccc1)c1ccc(N=Nc2nn(C)c(C)c2[N+](=O)[O-])cc1`, the AC50 under setting [1] was 29.1 µM [rising, partial curve, poor fit]. Turning to `CN(C)CCCN1c2ccccc2Sc2ccccc21`, the AC50 under setting [1] was 35.5 µM [falling, partial curve, poor fit]. The same measure, in the same setting: the figure for `N#CCc1nc(CSc2nc3ccccc3s2)cs1` is 3.26 µM [rising, full curve, poor fit]. On the same count and under the same terms, the figure for `O=C(Nc1ccc(Nc2ccccc2)cc1)c1c(F)c(F)c(F)c(F)c1F` is 1.12 µM [falling, full curve]; for `CCOC(=O)C1=C(O)C(=O)NC(c2ccccc2)=C(OCC)C1` it is 23.1 µM [falling, single point]. Same read-out and setting: the figure for `COc1cc2ccccc2cc1C(=O)N(CCN(C)C)c1nc2c(F)cccc2s1` is 22.4 µM [falling, single point]; for `Cc1cc(N/N=C/c2cccc(Cl)c2)nc(NCc2ccccc2)n1` it is 14.6 µM [rising, single point]; for `O=C(OCC(=O)N1CCCC1=O)c1cc(S(=O)(=O)N2CCOCC2)ccc1F` it is 25.9 µM [falling, single point]. Consider `O=C(NCc1ccccc1C(F)(F)F)C1CC(c2cccc(F)c2)=NO1` (stereo not drawn), for which the AC50 under setting [1] is 3.16 µM [falling, full curve]. On to `COc1ccc(N2CCN(C(=O)c3cn(Cc4ccccc4)nc3-c3cccnc3)CC2)cc1`, for which, under setting [1], the AC50 is 6.51 µM [rising, full curve, poor fit]. The same measure, in the same setting: the figure for `O=C(NCCc1cccc(Cl)c1)c1ccc2c(c1)OCO2` is 12.6 µM [falling, single point]; for `COc1cccc(NS(=O)(=O)c2ccc(OC)c(OC)c2)c1` it is 17.8 µM [rising, single point]; for `COc1ccc(C(F)(F)F)cc1N/C=C/c1nnnn1-c1ccc2ccccc2c1` it is 12.6 µM [rising, single point]. As for `Cc1cccc(NC(=S)N=Nc2c(O)[nH]c3ccccc23)c1`, the AC50 by setting is: under setting [1], 29.1 µM [falling, single point]; under setting [2], 5.8 µM [falling, single point].

Consider `CSc1nc2sc3c(c2c(=O)n1-c1ccccc1C)CCCC3`, for which, under setting [1], the AC50 was 35.5 µM [rising, single point]. The same measure, in the same setting: the result for `Cc1ccc(NC2=CC(=O)CC(c3ccc(Cl)cc3)C2)cc1` (stereo not drawn) reads 32.6 µM [rising, partial curve, poor fit]; that for `Cc1ccc(/C=N/n2c(C3CCCCC3)n[nH]c2=S)cc1`, 35.5 µM [rising, single point]. Turning to `COc1ccc(NC(=O)CN(c2ccccc2OC)S(=O)(=O)c2cccs2)cc1Cl`, under setting [1], the AC50 was 3.26 µM [falling, partial curve, poor fit]. The same measure, in the same setting: the result for `CCOc1c(Cl)cc(C(=O)Nc2ccccc2C(=O)O)cc1Cl` reads 2.51 µM [falling, full curve, poor fit]; that for `Cc1ccc2cc3c(NC(=O)CC(C)C)nn(C)c3nc2c1`, 0.794 µM [falling, full curve].

On to `CC(C)(C)C(=O)N1CCN(c2nc3ccc(Br)cc3s2)CC1`, for which the AC50 under setting [1] is 25.1 µM [rising, partial curve, poor fit]. Still for that read-out and setting: the result for `O=C(Nc1sc(-c2ccccc2)cc1C(=O)O)c1ccccc1` reads 6.31 µM [falling, partial curve, poor fit]; that for `Clc1ccc(N/N=C/c2ccncc2)cc1Cl`, 2.06 µM [rising, full curve]; that for `CC(=O)Nc1ccc(C(=O)OCc2ccc(Cl)c(Cl)c2)cc1`, 23.1 µM [rising, single point]. Take `COc1cc(CNCCSc2nnnn2C)cc(Br)c1OCc1ccccc1`: the concentration at half-maximal activity (AC50) under setting [1] is 17.8 µM [falling, single point]. The same measure, in the same setting: the figure for `Cc1cc2c(cc1S(=O)(=O)N1CCN(c3ccc(Cl)cc3)CC1)OCCN2C` is 11.2 µM [rising, partial curve, poor fit].

These data come from PubChem BioAssay AID493014 (National Center for Advancing Translational Sciences (NCATS), 2011).
